PubChem BioAssay AID1259308, NCATS – 2017
Purpose: 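Candidate targets for better recombinant protein yield in mammalian cells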 (primary screen). Cell system: human HEK293 embryonic kidney cells stably expressing firefly luciferase (HEK-CMV-Luc2-Hygro). Knock-down reagent: single siRNA against human genes, 0.8 pmol siRNA per well. Duration: 72 h. Measured: 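Reporter luminescence and viable-cell signal on separate replicate plates, given as percent of non-targeting control and median/MAD z-scores, plus per-cell luciferase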. Reading the numbers: total luciferase, z-score and total luciferase, % of control: higher = more reporter protein produced; luciferase per cell, z-score: higher = more reporter output per viable cell. Call rule: 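An siRNA counts as active if its total luciferase robust z-score exceeds 3; genes with two or more such siRNAs out of three were retested with fresh siRNAs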. Calls: active = raised luciferase; inactive = no rise.
This is a random part of about 59,000 reagents tested. Of all reagents, about 1,510 (2.6%) got an active call. 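Calls use total luciferase alone and ignore viability, so some active siRNAs may act by altering cell number.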 Unmarked entries are inactive. The numbers tell different reagents against one gene apart. Further read-outs or replicates are left out here. No sequences are given here.

Target gene	reagent	total luciferase, z-score	total luciferase, % of control	luciferase per cell, z-score
ANKRD11 (ankyrin repeat domain 11)	1	0.4	89.8	0.291
ANKRD11 (ankyrin repeat domain 11)	2	4.02 (active)	162	3.09
ANKRD11 (ankyrin repeat domain 11)	3	1.95	121	1.63
NOVA1 (NOVA alternative splicing regulator 1)	1	0.17	85.3	-0.0505
NOVA1 (NOVA alternative splicing regulator 1)	2	0.0606	83.1	2.26
NOVA1 (NOVA alternative splicing regulator 1)	3	0.00491	82	0.282
AVL9 (AVL9 cell migration associated)	1	0.462	91.1	0.00222
AVL9 (AVL9 cell migration associated)	2	-0.988	62.2	-1.69
AVL9 (AVL9 cell migration associated)	3	0.918	100	0.71
RIPPLY1 (ripply transcriptional repressor 1)	1	0.983	101	1.35
RIPPLY1 (ripply transcriptional repressor 1)	2	1.31	108	1.05
RIPPLY1 (ripply transcriptional repressor 1)	3	2.84	138	2.07
MEIS1 (Meis homeobox 1)	1	-0.379	74.3	-0.509
MEIS1 (Meis homeobox 1)	2	2.08	123	2.47
MEIS1 (Meis homeobox 1)	3	-0.149	78.9	-0.232
COCH (cochlin)	1	1.96	121	1.92
COCH (cochlin)	2	1.41	110	0.183
COCH (cochlin)	3	-0.92	63.6	-1.08
OR5H2 (olfactory receptor family 5 subfamily H member 2)	1	-0.828	65.4	-0.872
OR5H2 (olfactory receptor family 5 subfamily H member 2)	2	-0.903	63.9	-0.541
OR5H2 (olfactory receptor family 5 subfamily H member 2)	3	-0.912	63.7	-1.46
LRFN3	1	0.811	98	0.939
LRFN3	2	-0.685	68.3	-0.579
LRFN3	3	-0.12	79.5	-0.33
POPDC2 (popeye domain cAMP effector 2)	1	1.64	114	1.21
POPDC2 (popeye domain cAMP effector 2)	2	-1.47	52.6	-1.5
POPDC2 (popeye domain cAMP effector 2)	3	-0.851	65	-0.538
HS3ST3A1 (heparan sulfate-glucosamine 3-sulfotransferase 3A1)	1	-0.663	68.7	-0.691
HS3ST3A1 (heparan sulfate-glucosamine 3-sulfotransferase 3A1)	2	0.446	90.8	0.217
HS3ST3A1 (heparan sulfate-glucosamine 3-sulfotransferase 3A1)	3	0.882	99.4	0.0429
POR (cytochrome p450 oxidoreductase)	1	1.5	112	0.965
POR (cytochrome p450 oxidoreductase)	2	0.0933	83.7	-0.129
POR (cytochrome p450 oxidoreductase)	3	-0.847	65	-0.825
IPO7 (importin 7)	1	0.135	84.6	-0.12
IPO7 (importin 7)	2	1.27	107	0.664
IPO7 (importin 7)	3	-0.0924	80	0.0179
CCDC82 (coiled-coil domain containing 82)	1	0.891	99.6	0.86
CCDC82 (coiled-coil domain containing 82)	2	0.0607	83.1	1.03
CCDC82 (coiled-coil domain containing 82)	3	-0.725	67.5	-0.893
LOC653698	1	1.42	110	0.94
LOC653698	2	0.034	82.6	0.0822
LOC653698	3	1.88	119	1.36
INTS3 (integrator complex subunit 3)	1	1.25	107	0.364
INTS3 (integrator complex subunit 3)	2	2.08	123	1.66
INTS3 (integrator complex subunit 3)	3	1.84	119	1.34
PYM1 (PYM1 exon junction complex associated factor)	1	-0.467	72.6	0.451
PYM1 (PYM1 exon junction complex associated factor)	2	-0.895	64.1	-1
PYM1 (PYM1 exon junction complex associated factor)	3	-0.679	68.4	0.194
FAM228A (family with sequence similarity 228 member A)	1	0.31	88	-0.234
FAM228A (family with sequence similarity 228 member A)	2	0.166	85.2	0.112
FAM228A (family with sequence similarity 228 member A)	3	0.654	94.9	-0.157
KRTAP9-2 (keratin associated protein 9-2)	1	0.183	85.5	2.09
KRTAP9-2 (keratin associated protein 9-2)	2	0.721	96.2	0.442
KRTAP9-2 (keratin associated protein 9-2)	3	-0.675	68.5	-1.11
MRPL18 (mitochondrial ribosomal protein L18)	1	-0.902	63.9	-1.69
MRPL18 (mitochondrial ribosomal protein L18)	2	-0.918	63.6	0.0891
MRPL18 (mitochondrial ribosomal protein L18)	3	-0.755	66.9	-0.42

Looked up above.
Under “luciferase per cell, z-score”, RIPPLY1 (ripply transcriptional repressor 1) #3 shows 2.07
POR (cytochrome p450 oxidoreductase) #3, total luciferase, % of control = 65
ANKRD11 (ankyrin repeat domain 11) #3, total luciferase, % of control = 121
AVL9 (AVL9 cell migration associated) #1, luciferase per cell, z-score → 0.00222
